Assay results from article PMC13034042.
No constants are given. Whether binding was seen depends on the method and setting. In cells and extracts the contact can be indirect. These calls come from enrichment with a bait or labelling near it, and not all partners need be listed. For some of these results: Tags and fused reporters may be left off the sequences shown. One block for each binder: values may come before it.

Protein sequences, listed by entry. Tags and fused reporters are not part of them.
UniProt P0CX44: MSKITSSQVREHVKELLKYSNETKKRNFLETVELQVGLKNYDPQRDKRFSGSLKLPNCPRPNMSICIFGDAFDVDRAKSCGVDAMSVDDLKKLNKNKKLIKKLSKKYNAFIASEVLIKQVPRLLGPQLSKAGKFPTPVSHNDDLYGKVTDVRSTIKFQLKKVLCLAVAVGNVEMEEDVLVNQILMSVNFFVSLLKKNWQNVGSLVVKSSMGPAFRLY
UniProt P14126: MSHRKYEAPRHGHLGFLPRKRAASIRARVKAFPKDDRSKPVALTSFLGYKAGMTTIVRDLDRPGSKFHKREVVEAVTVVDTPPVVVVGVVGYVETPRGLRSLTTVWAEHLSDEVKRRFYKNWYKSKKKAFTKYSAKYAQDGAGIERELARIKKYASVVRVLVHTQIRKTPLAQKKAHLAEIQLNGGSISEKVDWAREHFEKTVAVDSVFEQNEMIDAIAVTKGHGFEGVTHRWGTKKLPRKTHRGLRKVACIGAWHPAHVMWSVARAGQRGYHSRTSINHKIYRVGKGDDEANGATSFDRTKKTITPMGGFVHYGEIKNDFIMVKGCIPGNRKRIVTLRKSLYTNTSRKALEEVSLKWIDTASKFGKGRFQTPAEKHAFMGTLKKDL

Experiments:
Assay in all cases: proximity labelling; TurboID-fused bait expressed from a centromeric CUP1-promoter plasmid in S. cerevisiae YDK11-5A; 500 μM copper sulphate and 500 μM biotin for 1 h at 30°C; biotinylated proteins purified on streptavidin agarose and identified by LC-MS/MS; enrichment against the GFP-TurboID and NLS-GFP-TurboID type controls
[1] = target: Ubi1-TurboID (S. cerevisiae)
[2] = target: T1, TurboID-Syo1 (S. cerevisiae) (UniProt Q07395)
T1 sequence: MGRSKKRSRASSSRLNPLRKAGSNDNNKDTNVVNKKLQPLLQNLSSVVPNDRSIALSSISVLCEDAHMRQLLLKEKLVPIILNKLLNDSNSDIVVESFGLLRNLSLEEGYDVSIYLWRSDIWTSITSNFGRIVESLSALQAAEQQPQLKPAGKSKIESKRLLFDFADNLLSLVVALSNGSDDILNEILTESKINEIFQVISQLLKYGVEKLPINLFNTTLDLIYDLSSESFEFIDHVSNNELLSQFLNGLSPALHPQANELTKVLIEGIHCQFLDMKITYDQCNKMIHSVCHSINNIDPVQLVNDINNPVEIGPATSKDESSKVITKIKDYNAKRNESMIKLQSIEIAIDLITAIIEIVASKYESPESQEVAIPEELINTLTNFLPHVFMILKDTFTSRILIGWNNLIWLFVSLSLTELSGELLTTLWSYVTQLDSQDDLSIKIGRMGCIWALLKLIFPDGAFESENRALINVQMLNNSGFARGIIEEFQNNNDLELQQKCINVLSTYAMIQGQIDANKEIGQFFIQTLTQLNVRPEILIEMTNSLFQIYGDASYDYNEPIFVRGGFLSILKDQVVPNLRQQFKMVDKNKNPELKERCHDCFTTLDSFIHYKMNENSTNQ

[3] = target: T2, Syo1-TurboID (S. cerevisiae) (UniProt Q07395)
T2 sequence: T1 sequence

[4] = target: TurboID-Rpl1b (S. cerevisiae) (UniProt P0CX44)
[5] = target: T3, TurboID-Sqt1 (S. cerevisiae) (UniProt P35184)
T3 sequence: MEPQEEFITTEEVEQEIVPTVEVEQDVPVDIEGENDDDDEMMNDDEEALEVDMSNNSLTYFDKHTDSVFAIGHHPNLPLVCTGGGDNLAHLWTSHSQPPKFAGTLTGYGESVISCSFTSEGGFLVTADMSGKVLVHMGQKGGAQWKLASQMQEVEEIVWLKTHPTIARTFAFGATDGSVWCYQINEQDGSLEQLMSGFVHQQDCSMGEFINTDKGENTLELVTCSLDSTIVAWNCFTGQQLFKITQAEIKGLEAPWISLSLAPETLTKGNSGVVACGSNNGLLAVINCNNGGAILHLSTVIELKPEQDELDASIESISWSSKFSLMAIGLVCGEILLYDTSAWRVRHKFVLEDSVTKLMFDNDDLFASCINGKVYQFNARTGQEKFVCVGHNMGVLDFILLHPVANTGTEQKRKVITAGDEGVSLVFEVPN

[6] = target: T4, TurboID-tagged Bcp1 (both baits) (S. cerevisiae) (UniProt Q06338)
T4 sequence: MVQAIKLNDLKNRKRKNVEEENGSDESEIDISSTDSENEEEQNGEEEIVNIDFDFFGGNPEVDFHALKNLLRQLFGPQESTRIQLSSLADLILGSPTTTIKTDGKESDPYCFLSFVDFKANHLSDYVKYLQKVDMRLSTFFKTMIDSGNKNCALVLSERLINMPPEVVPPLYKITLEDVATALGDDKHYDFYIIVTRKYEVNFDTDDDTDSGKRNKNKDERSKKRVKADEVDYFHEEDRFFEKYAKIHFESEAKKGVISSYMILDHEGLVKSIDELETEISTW

[7] = target: Rpl3-TurboID (S. cerevisiae) (UniProt P14126)

binding [1]: binds
B1: Yvh1 (endogenous) (protein, UniProt Q02256 1-364)
chain: MAGNANSVDEEVTRILGGIYLGGIRPIIDHRPLGAEFNITHILSVIKFQVIPEYLIRKGYTLKNIPIDDDDVTDVLQYFDETNRFIDQCLFPNEVEYSPRLVDFKKKPQRGAVFAHCQAGLSRSVTFIVAYLMYRYGLSLSMAMHAVKRKKPSVEPNENFMEQLHLFEKMGGDFVDFDNPAYKQWKLKQSIKLDPSGSELVSNSGMFKDSESSQDLDKLTEAEKSKVTAVRCKKCRTKLALSTSFIAHDPPSKESSEGHFIKRAANSHRIIDIQESQANCSHFFIEPLKWMQPELQGKQELEGKFSCPGCSSKVGGYNWKGSRCSCGKWVIPAIHLQTSKVDQFPLQSTALPNMVNFESEKVNR

binding [2]: binds
binding [3]: binds
binding [4]: binds
B2: Rrs1 (endogenous) (protein, UniProt Q08746 1-203)
chain: MSAEDYKNLPVTVEKPIPVVYDLGNLAAFDSNVLDKNDLDSSNARREEKIKSLTRDNVQLLINQLLSLPMKTTTESVGGTGGQSSVMTLLQLPDPTTDLPREKPLPKAKAMTKWEKFAAKKGIKPKERAGKMIYDEASGEWVPKWGYKGANKKLDDQWLVEVDDKVKGTDNELIDPRTLNRAERKRLVKKNEKQQRRNMKNAL

binding [5]: binds
binding [1]: binds
B3: Nmd3 (endogenous) (protein, UniProt P38861 1-518)
chain: MEFTPIDPHQHQNAATLLCCNCGTPIDGSTGLVMCYDCIKLTVDITQGIPREANISFCRNCERFLQPPGQWIRAELESRELLAICLRRLKGLTKVRLVDASFIWTEPHSRRIRIKLTVQGEAMTNTIIQQTFEVEYIVIAMQCPDCARSYTTNTWRATVQIRQKVPHKRTFLFLEQLILKHNAHVDTISISEAKDGLDFFYAQKNHAVKMIDFLNAVVPIKHKKSEELISQDTHTGASTYKFSYSVEIVPICKDDLVVLPKKLAKSMGNISQFVLCSKISNTVQFMDPTTLQTADLSPSVYWRAPFNALADVTQLVEFIVLDVDSTGISRGNRVLADITVARTSDLGVNDQVYYVRSHLGGICHAGDSVMGYFIANSNYNSDLFDGLNIDYVPDVVLVKKLYQRKSKKSRHWKLKRMAKEHKDIDASLDYNSRAQKQEMERAEKDYELFLQELEEDAELRQSVNLYKNREANVPPEEHEMDEDEDEDAPQINIDELLDELDEMTLEDGVENTPVESQQ

binding [2]: binds
binding [3]: binds
binding [4]: binds
B4: Rpf2 (endogenous) (protein, UniProt P36160 1-344)
chain: MIRTVKPKNARAKRALVKREAKLVENVKQALFIPGQSCNKNLHDIMVDLSALKKPDMKRFNRKNDIHPFEDMSPLEFFSEKNDCSLMVLMTSSKKRKNNMTFIRTFGYKIYDMIELMVADNFKLLSDFKKLTFTVGLKPMFTFQGAAFDTHPVYKQIKSLFLDFFRGESTDLQDVAGLQHVISMTIQGDFQDGEPLPNVLFRVYKLKSYKSDQGGKRLPRIELVEIGPRLDFKIGRIHTPSPDMVTEAHKKPKQLEMKTKKNVELDIMGDKLGRIHMGKQDLGKLQTRKMKGLKSKFDQGTEEGDGEVDEDYEDEASYSDDGQEYEEEFVSATDIEPSAKRQKK

binding [6]: binds
B5: Mss4 (endogenous) (protein, UniProt P38994 1-779)
chain: MSVLRSQPPSVVPLHLTTSTSRKTEQEPSLLHSAIIERHQDRSVPNSNSNPDSNHRIKKDRNNHTSYHSSSNSESNMESPRLSDGESSTPTSIEELNPTINNSRLVKRNYSISIDPLHDNSNNNTDDDHPNTITSPRPNSTSNKEMQKYSFPEGKESKKITTPSLNSNNCLDLDNSSLVHTDSYIQDLNDDHILLNKRVSRRSSRISAVTATSTTIKQRRNTQDSNLPNIPFHASKHSQILPMDDSDVIKLANGDTSMKPNSATKISHSMTSLPLHPLPQPSQKSKQYHMISKSTTSLPPENDHYYQHSRGTNHNHAANAAAVNNNTTTTTAATGLKRSESATAEIKKMRQSLLHKREMKRKRKTFLVDDDRVLIGNKVSEGHVNFIIAYNMLTGIRVAVSRCSGIMKPLTPADFRFTKKLAFDYHGNELTPSSQYAFKFKDYCPEVFRELRALFGLDPADYLVSLTSKYILSELNSPGKSGSFFYYSRDYKYIIKTIHHSEHIHLRKHIQEYYNHVRDNPNTLICQFYGLHRVKMPISFQNKIKHRKIYFLVMNNLFPPHLDIHITYDLKGSTWGRFTNLDKERLAKDRSYRPVMKDLNWLEEGQKIKFGPLKKKTFLTQLKKDVELLAKLNTMDYSLLIGIHDINKAKEDDLQLADTASIEEQPQTQGPIRTGTGTVVRHFFREFEGGIRASDQFNNDVDLIYYVGIIDFLTNYSVMKKLETFWRSLRHDTKLVSAIPPRDYANRFYEFIEDSVDPLPQKKTQSSYRDDPNQKNYKD

binding [7]: binds
binding [6]: binds
B6: Mak11 (endogenous) (protein, UniProt P20484 1-414)
chain: MSAIGDKNQFRIIVGSYEHNILCLSLDIPNQKENDAAKTPHFMPIFHFQAHSLSIKCLAVSRRYLVSGSNDEHIRIYDLQKRKELGTLLSHQGSITALQFSHPASSSEDAAVSKGSKNSKWLLSASEDHKIMVWRVKDWETVGTLKGHTARVNDVDIHPTNRIAISVSDDHSIRLWNLMTLRNAAVLKLRKYNTNGTCVRWLGAKGDYFAVGLRDRVLIYETGSAKVFKEIVFQRKTLMHIETHILPFDNKEYLSVGISDGNVHFYPCEELFEKVEENEKQEDDDDKEDISPAFSLLGHTNRIKDFKFYTNEFGTYLVTIGSDGKIVVWDMSTKEQVAVYDCGERLNCLTLCDESIEKYNTMKKRDAETADIGDQSEVESDTEELKKIMFGEKKKLNKKKRKQLKKSKVSVELE

binding [6]: binds
B7: Rkm1 (endogenous) (protein, UniProt Q08961 1-583)
chain: MSSDALKALLQWGASFGVIVPEELKFLYTDLKGIICVCEKDIDNPSIKIPPEIVISRNLPMKFFGLSESTKNINGWLKLFFAKIKFDRDNDTIVDNVRVNDKFKPYLDALPSRLNSPLVWNPSELKRLSSTNIGNSIHEKFEGIFKEWFELVSSSDMFDLERVADDVQTFHNLDELTYEALYEKILKITELQRPTIWYSFPAFLWSHLIFISRAFPEYVLNRNCPDNSIVLLPIVDLLNHDYRSKVKWYPENGWFCYEKIGTASQSRELSNNYGGKGNEELLSGYGFVLEDNIFDSVALKVKLPLDVVSTILETEPSLKLPLLSDYTTYAFENKDCVQQEKKATRSATDYINGVTYFINIQNEQCLEPLLDLFTYLSKAEEEDLHDLRARLQGIQMLRNALQSKLNSITGPPATDDSYAIDPYRVYCADVYTKGQKQILKEALTRLKKLEKTMLSENKHQLLTMSKILKNDPAFAETELPSLFSNEDGEEVIFESTYDLLILWILLKTKKNSYPTKYEWVGQQYTNFKQTAYISDDAKAFHTAYFEKQDDVDLAEVDHAIQFVVDNSFTRTSSTTEETILVRK
